The values below are quoted from earlier work in patent US20240043489A1, “Cytokine Prodrugs Comprising a Cleavable Linker” (Trutino Biosciences Inc., priority 2020, published 2024).

Amino acid sequences for entries named in this document (tags omitted). Residues count along the entry.
UniProt P02452, 162-1218 limits assumed: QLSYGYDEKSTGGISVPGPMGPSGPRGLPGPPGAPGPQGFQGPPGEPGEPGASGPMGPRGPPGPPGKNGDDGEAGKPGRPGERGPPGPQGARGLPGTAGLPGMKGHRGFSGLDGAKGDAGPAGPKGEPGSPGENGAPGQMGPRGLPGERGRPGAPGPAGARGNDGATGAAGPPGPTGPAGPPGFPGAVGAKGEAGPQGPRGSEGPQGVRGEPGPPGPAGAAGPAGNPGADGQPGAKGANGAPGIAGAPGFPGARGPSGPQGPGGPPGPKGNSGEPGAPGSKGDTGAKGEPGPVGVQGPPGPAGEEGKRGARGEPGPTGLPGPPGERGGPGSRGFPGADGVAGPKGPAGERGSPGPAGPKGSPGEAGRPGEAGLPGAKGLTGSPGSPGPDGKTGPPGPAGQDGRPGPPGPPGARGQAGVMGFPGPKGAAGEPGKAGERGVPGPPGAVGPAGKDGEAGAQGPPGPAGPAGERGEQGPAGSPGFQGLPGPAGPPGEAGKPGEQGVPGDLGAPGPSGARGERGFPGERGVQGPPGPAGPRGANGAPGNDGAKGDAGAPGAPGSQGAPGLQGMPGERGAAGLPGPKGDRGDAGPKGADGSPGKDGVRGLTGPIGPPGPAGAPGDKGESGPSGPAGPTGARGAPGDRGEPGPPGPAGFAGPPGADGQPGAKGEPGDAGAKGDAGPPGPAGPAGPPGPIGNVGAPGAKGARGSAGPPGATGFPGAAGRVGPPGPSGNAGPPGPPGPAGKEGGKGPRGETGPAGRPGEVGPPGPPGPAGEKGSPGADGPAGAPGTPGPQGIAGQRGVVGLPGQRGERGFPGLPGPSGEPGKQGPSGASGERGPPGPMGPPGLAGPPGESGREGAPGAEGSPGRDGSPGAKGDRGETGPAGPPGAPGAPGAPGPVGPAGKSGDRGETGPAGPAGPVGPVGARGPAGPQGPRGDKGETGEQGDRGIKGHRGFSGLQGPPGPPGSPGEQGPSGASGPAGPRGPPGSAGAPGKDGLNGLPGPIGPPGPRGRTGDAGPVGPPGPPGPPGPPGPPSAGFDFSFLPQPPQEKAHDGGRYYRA
UniProt P08123, 80-1119 limits assumed: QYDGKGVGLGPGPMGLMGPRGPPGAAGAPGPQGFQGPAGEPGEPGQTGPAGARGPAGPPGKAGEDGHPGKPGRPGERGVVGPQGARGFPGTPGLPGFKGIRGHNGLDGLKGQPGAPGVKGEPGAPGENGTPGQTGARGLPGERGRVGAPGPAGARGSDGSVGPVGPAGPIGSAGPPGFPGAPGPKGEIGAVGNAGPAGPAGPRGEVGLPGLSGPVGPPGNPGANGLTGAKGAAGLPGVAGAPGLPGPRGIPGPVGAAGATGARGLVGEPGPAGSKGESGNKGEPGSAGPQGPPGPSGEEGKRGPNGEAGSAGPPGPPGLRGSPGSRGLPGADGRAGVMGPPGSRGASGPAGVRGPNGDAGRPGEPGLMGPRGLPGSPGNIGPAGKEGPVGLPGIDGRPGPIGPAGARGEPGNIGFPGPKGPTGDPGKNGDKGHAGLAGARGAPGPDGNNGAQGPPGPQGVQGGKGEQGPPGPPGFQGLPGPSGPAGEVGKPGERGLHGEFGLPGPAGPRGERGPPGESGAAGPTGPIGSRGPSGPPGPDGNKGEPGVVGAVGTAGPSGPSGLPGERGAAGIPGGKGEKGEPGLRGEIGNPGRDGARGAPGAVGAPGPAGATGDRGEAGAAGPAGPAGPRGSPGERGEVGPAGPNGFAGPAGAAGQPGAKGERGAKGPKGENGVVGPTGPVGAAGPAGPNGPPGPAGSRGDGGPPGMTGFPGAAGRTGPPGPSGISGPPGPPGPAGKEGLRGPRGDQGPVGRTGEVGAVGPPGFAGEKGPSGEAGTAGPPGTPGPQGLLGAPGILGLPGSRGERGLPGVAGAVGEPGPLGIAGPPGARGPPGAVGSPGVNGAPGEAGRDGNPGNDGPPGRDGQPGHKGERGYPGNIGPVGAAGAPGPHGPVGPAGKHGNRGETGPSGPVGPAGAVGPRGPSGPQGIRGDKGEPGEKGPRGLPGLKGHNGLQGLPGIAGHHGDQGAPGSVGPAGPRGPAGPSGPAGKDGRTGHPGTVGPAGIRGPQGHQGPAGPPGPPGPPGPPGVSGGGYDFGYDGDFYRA

In this series the target is Collagen type I (Homo sapiens, UniProt P02452+P08123). The conditions noted are these: binds to Collagen type I; Note 1 of Table 2; tight binding; cited from earlier work.

Each structure is given as a SMILES string. Structures were worked out from names or drawings and are uncertain.

Regarding `CC[C@H](C)[C@H](NC(=O)[C@H](CS)NC(=O)[C@H](CCCCN)NC(=O)[C@H](Cc1ccc(O)cc1)NC(=O)[C@H](CC(C)C)NC(=O)[C@H](CCC(=O)O)NC(=O)CNC(=O)[C@H](C)NC(=O)[C@H](CCCCN)NC(=O)[C@H](CC(C)C)NC(=O)[C@H](C)NC(=O)[C@H](C)NC(=O)[C@H](CC(N)=O)NC(=O)[C@H](C)NC(=O)[C@H](CCCNC(=N)N)NC(=O)[C@@H](N)CCCNC(=N)N)C(=O)N[C@@H](CC(C)C)C(=O)N[C@@H](Cc1ccc(O)cc1)C(=O)NCC(=O)N[C@@H](CS)C(=O)O`, the Kd (usually the equilibrium constant for the complex coming apart) was 10 nM.
